Reference: publication PMC11421376
Results are given in words; binding and its absence hold for the method and conditions named. In cells and extracts the contact can be indirect. For part of these data: A result given as binding can be weak or reduced; the word gives no strength. Sequences can lack the tags named with a protein.

Legend:
Assay in all cases: pull-down; co-precipitation from infected HeLa cells (90 min infection): SBP-tagged translocated EspH precipitated from ~5 mg lysate with streptavidin agarose beads, 3 hrs at 4°C; lysis buffer 50 mM Tris pH 7.4, 150 mM NaCl, 0.5% NP-40; Rabs detected by immunoblot with anti-Rab or anti-tag antibodies; also done in Control-KO and Rab8a-KO1 HeLa cells
[1] = biological target: EspH K41A with C-terminal 6×His-SBP, translocated from EPEC-ΔespH/pEspH_(K41A) (enteropathogenic E. coli (EPEC))
[2] = biological target: EspH E37A with C-terminal 6×His-SBP, translocated from EPEC-ΔespH/pEspH_(E37A) (enteropathogenic E. coli (EPEC))
[3] = biological target: EspH K106R with C-terminal 6×His-SBP, translocated from EPEC-ΔespH/pEspH_(K106R) (enteropathogenic E. coli (EPEC))

B1: eGFP-Rab3a wild type, ectopically expressed (protein, UniProt P20336 1-220)
chain: MASATDSRYGQKESSDQNFDYMFKILIIGNSSVGKTSFLFRYADDSFTPAFVSTVGIDFKVKTIYRNDKRIKLQIWDTAGQERYRTITTAYYRGAMGFILMYDITNEESFNAVQDWSTQIKTYSWDNAQVLLVGNKCDMEDERVVSSERGRQLADHLGFEFFEASAKDNINVKQTFERLVDVICEKMSESLDTADPAVTGAKQGPQLSDQQVPPHQDCAC
In the case of B1, the binding [1] is reported as “no binding”, the binding [2] is reported as “no binding” and the binding [3] is reported as “binds”.
